Test results as given in publication PMC10590975.
Results are given in words; binding and its absence hold for the method and conditions named. In cells and extracts the contact can be indirect. Some results given as binding are weak or reduced against the parent protein; the word gives no strength.

The chains behind the UniProt entries cited, without tags or fusion partners.
UniProt Q9NYD6: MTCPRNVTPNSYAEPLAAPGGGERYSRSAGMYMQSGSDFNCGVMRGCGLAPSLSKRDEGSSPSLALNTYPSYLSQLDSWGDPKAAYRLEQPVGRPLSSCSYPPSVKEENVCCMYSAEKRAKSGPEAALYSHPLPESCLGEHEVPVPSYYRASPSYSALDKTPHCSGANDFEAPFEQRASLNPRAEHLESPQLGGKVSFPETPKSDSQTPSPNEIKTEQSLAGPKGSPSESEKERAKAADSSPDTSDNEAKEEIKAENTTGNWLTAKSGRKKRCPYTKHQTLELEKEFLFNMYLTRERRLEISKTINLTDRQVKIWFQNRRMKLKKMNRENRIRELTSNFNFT

T1: Forkhead Box A3 (FOXA3) (human (endogenous in ESCC cell lines)) (UniProt P55318)
T1 sequence: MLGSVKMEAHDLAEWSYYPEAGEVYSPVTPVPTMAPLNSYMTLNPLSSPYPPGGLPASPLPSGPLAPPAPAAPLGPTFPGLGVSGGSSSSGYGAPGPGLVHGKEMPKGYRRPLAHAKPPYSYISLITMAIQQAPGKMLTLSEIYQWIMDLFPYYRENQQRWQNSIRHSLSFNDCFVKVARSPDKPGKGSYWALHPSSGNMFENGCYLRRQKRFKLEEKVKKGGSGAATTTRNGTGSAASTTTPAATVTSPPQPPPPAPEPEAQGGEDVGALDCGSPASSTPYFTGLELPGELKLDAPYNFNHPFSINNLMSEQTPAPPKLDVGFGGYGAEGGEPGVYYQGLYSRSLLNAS

B1: Forkhead Box A3 (FOXA3) (protein, UniProt P55318 1-350)
chain: T1 sequence

Columns and labels:
[1] = biological target: T1, Forkhead Box A3 (FOXA3) (human (endogenous in ESCC cell lines)); assay: co-IP; total protein (500 ug) from ESCC cells in RIPA lysis buffer; incubated with anti-HOXC10, anti-FOXA3 or IgG overnight at 4 C; Protein G/A agarose beads 2 h; washed with PBS three times; western blot for FOXA3 and HOXC10
[2] = biological target: HomeoboxC10 (HOXC10) (human (endogenous in ESCC cell lines)) (UniProt Q9NYD6); assay: as above

| Molecule | binding [1] | binding [2] |
| --- | --- | --- |
| HomeoboxC10 (HOXC10) (from UniProt Q9NYD6 1-342) | binds | – |
| B1 | – | binds |
